The target of one assay is β2-adaptin–Venus (UniProt P63010). In words: FRET or BRET; β-arrestin2–Rluc8 (donor) and β2-adaptin–Venus (acceptor) co-expressed in HEK 293T cells with CB2R; BRET followed after JWH-133 (10 µM), 37°C. In general terms: BRET reads energy transfer from a luciferase to a nearby fluorophore.
The next assay deals with CB2R-L133I–Rluc8 (human) (UniProt P34972). Briefly: FRET or BRET; CB2R–Rluc8 (donor) and β-arrestin2–Venus (acceptor) co-expressed in adherent HEK 293T cells, 37°C, modified Krebs-Ringer medium pH 7.4, coelenterazine h; stimulus-induced BRET ratio change upon JWH-133 or 2-AG (10 μM, or concentration series).
The target of a further assay is CB2R-Q63R–Rluc8 (human) (UniProt P34972). Described as above.
For assay [1], the target named is CB2R–Rluc8 (wild-type human CB2 cannabinoid receptor fused to Rluc8) (human) (UniProt P34972). Described as above.

Amino acid sequences for entries named in this document (tags omitted).
UniProt P63010: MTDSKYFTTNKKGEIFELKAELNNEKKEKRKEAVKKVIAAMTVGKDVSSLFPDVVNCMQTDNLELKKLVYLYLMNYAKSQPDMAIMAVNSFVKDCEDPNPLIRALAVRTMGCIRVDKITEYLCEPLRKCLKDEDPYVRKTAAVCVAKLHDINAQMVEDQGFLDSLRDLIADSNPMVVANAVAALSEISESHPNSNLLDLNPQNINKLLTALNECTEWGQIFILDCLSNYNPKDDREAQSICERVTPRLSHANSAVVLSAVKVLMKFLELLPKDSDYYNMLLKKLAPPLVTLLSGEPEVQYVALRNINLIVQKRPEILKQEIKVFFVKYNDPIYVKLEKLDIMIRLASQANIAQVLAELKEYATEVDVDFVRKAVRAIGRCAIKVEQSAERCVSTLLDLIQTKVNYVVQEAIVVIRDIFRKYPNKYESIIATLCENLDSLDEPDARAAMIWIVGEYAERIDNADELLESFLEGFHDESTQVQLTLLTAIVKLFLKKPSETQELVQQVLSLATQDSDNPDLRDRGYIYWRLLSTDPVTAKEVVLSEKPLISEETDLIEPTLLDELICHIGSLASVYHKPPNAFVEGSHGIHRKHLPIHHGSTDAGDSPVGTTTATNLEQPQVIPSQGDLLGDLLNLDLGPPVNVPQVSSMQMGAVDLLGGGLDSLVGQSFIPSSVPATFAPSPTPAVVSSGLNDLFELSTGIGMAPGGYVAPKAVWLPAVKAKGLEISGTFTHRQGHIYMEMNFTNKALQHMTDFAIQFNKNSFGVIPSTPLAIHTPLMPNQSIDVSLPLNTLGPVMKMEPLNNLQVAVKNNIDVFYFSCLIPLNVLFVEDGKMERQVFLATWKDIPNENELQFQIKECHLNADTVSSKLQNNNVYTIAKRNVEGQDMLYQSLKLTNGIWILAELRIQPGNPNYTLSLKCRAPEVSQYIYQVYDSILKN
UniProt P29067: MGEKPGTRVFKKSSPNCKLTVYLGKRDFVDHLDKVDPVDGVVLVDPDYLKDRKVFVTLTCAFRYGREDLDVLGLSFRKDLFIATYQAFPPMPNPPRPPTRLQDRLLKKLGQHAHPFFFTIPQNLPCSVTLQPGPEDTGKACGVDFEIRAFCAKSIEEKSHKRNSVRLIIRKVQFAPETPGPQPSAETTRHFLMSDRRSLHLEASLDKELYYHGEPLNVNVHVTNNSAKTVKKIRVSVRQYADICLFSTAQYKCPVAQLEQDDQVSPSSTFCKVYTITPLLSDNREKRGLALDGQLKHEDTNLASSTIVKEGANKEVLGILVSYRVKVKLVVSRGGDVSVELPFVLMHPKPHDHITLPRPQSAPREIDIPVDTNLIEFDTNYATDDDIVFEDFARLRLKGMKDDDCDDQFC

These are yes or no findings as the source states them, for the method shown. Binding seen in cells or lysates may run through a third protein. Some binding calls cover weakened binding; strength is not graded here.

For the substance “β-arrestin2–Rluc8 (from UniProt P29067 1-410)”, the binding entry in the assay with β2-adaptin–Venus was “binds”.

Consider “β-arrestin2–Venus (from UniProt P29067 1-410)”, for which the binding entry (with CB2R-L133I–Rluc8 (human); with CB2R-Q63R–Rluc8 (human); in assay [1]) was “binds” throughout.

These data come from PMC8415483.
